Results reported in article PMC4741484.
These are yes or no findings as the source states them, for the method shown. For some of these results: Binding seen in cells or lysates may run through a third protein. Some results given as binding are weak or reduced against the parent protein; the word gives no strength. For some of these results: Tags and fused reporters may be left off the sequences shown.

Chains of the proteins cited; added tags and fusions are not shown. Lines headed by an entry give the natural chain unless they say otherwise; changes in a name come on top.
UniProt P01100: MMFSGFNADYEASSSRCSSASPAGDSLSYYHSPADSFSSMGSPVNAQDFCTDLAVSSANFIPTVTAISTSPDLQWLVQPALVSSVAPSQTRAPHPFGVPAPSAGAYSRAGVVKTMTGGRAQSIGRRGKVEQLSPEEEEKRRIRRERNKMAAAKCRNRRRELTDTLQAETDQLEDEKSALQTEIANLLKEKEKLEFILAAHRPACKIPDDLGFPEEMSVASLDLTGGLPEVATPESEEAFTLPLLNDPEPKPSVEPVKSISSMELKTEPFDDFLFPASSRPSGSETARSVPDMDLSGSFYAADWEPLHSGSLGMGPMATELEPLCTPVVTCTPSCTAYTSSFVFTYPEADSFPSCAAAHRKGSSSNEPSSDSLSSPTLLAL

Columns and labels:
GST-KDM2A = target: T1, GST-KDM2A (UniProt Q9Y2K7); test: pull-down; GST pull-down: purified His fusion proteins and GST-KDM2A (or GST) purified from bacteria, glutathione-Sepharose 4B beads; washed with TENT buffer (0.5% Nonidet P-40, 20 mM Tris pH 7.4, 0.1 mM EDTA, 300 mM NaCl); Western blotting with anti-GST antibody and Coomassie staining; both purified
T1 sequence: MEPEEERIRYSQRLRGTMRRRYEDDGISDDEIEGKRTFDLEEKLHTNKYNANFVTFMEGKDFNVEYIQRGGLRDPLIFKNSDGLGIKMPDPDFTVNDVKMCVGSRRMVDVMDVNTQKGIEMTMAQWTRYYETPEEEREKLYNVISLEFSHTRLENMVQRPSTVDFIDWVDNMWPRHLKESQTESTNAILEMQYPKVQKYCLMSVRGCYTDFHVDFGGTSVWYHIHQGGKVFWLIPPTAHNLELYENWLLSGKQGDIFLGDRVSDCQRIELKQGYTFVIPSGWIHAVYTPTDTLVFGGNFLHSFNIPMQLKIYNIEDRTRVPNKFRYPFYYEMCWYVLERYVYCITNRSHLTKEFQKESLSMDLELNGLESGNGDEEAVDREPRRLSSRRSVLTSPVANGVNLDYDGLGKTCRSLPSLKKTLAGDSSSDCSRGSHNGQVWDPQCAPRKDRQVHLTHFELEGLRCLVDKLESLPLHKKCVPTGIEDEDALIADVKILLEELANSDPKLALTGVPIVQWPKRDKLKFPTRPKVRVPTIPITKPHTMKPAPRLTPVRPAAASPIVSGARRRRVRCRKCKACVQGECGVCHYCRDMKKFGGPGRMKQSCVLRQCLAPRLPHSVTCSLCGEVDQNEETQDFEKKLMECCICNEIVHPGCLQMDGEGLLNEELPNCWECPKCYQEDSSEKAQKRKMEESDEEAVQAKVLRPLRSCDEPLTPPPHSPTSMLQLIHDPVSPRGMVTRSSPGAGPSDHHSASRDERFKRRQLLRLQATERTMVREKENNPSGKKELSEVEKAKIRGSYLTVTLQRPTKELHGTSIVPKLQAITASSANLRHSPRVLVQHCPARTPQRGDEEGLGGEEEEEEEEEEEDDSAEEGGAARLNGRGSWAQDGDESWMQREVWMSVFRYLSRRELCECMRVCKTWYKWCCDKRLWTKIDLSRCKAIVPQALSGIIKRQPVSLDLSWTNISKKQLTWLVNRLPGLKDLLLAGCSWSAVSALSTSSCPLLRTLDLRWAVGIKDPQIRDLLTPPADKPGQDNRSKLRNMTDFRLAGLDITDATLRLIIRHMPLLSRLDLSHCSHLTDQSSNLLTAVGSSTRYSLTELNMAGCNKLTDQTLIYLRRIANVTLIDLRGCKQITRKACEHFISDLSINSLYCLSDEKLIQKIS

[1] = target: T2, KDM2A (endogenous) (human (endogenous in H719 and H460)) (UniProt Q9Y2K7); test: co-IP; endogenous proteins, H719 cells without or with TPA (100 ng/mL, 2 hrs); lysis in 1% NP-40, 150 mM NaCl, 50 mM Tris, 0.05% SDS; IP with anti-c-Fos or with anti-KDM2A, Western blotting with anti-KDM2A or anti-c-Fos
T2 sequence: T1 sequence

Flag-tagged KDM2A = target: T3, Flag-tagged KDM2A (UniProt Q9Y2K7); test: co-IP; Myc-tagged c-Fos and Flag-tagged demethylase co-transfected into HEK293T cells; Co-IP with anti-Myc and anti-Flag antibodies, immunoblotting with anti-Myc
T3 sequence: T1 sequence

binding (GST-KDM2A)	Substance	also measured
binds	His-tagged c-Fos, full length (FL) (from UniProt P01100 1-380)	–
binds	His-c-Fos middle fragment (aa 137-200) (from UniProt P01100 137-200) (domain or fragment)	–
–	c-Fos (endogenous) (from UniProt P01100 1-380)	binding [1]: binds
–	Myc-tagged c-Fos (from UniProt P01100 1-380)	binding (Flag-tagged KDM2A): binds
